# According to publication PMC6379680, “The Leishmania PABP1–eIF4E4 interface: a novel 5′–3′ interaction architecture for trans-spliced mRNAs” (Nucleic Acids Research, 2018):
# Results are given in words; binding and its absence hold for the method and conditions named. Some binding calls cover weakened binding; strength is not graded here.
# Biological target: PABP1(J), the PABC domain of Leishmania major PABP1 prepared as segment J (Leishmania major) (UniProt E9AFX7)
# Assay: crystal structure; vapour diffusion at 22°C; PABP1(J) alone and PABP1(J) co-crystallised with the eIF4E4 PAM2 peptide; about 2 Å; both purified
binder,measurement,value
"PABP1(J), the PABC domain of Leishmania major PABP1 prepared as segment J (domain or fragment, UniProt E9AFX7 482-560) LPPITPQELESMSPQEQRAALGDRLFLKVYEIAPELAPKITGMFLEMKPKEAYELLNDQKRLEERVTEALCVLKAHQTA",binding,binds
